Measurements from PubChem BioAssay AID1671190 (National Center for Advancing Translational Sciences (NCATS), 2021).
Among all 580,000 compounds or so, about 6,100 (1.1%) were called active. Inconclusive means that the source gave no clear call. Such entries were picked first, then a sample of the others. Calls come from the whole dose curve; as a rule, active = well fitted inhibition curve with a large enough effect; inconclusive = small, poorly fitted or top-dose-only effect, or another doubt; inactive = no such curve, though single readings can be large or run the other way. Potencies beside an inconclusive call are fits to weak or partial responses and may not hold up.

Chains of the proteins cited; added tags and fusions are not shown. Lines headed by an entry give the natural chain unless they say otherwise; changes in a name come on top.
UniProt P18054: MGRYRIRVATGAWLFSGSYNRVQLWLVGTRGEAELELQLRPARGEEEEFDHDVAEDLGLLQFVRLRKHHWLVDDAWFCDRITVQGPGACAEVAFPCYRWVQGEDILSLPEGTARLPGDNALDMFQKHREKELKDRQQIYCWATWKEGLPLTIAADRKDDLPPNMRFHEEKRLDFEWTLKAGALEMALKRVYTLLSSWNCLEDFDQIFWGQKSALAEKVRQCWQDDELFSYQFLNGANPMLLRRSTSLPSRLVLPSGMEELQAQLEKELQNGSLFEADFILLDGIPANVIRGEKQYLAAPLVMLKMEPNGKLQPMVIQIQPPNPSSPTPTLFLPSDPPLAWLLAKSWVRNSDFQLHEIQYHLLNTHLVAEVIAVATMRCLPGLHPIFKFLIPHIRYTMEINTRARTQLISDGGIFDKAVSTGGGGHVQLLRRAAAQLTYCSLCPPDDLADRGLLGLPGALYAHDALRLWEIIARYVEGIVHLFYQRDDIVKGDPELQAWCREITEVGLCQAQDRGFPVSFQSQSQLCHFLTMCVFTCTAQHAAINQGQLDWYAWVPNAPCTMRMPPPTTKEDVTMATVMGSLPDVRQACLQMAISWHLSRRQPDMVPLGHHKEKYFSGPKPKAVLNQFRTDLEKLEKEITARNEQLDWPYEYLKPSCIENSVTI

target: Polyunsaturated fatty acid lipoxygenase ALOX12 (Homo sapiens) (UniProt P18054); test: Primary qHTS assay for inhibitors of human arachidonate 12S-lipoxygenase (ALOX12): Round 2; details: purified 12hLO, xylenol orange hydroperoxide absorbance; activity change, negative = inhibition: at 108 µM (top of the series) unless noted
Outline: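 Purified human 12hLO at 150 nM in 25 mM Hepes, 0.01% Triton X-100, pH 7.0, preincubated 15 min at room temperature with compound. Reaction started with 40 uM arachidonic acid, 30 min at room temperature. Hydroperoxide measured by Fe-xylenol orange, 573/405 nm absorbance ratio.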
% is set by controls: 0 for no effect and ±100 for the full control effect; potency is the fitted concentration of half-maximal effect.

Row | Compound | Potency | activity change, negative = inhibition
1 | O=C(CN1C(=O)c2ccccc2S1(=O)=O)Nc1ncc(Cl)cc1Cl | inconclusive: 12.6 µM [inhibitor, partial curve, poor fit] | 
2 | CSCCC(=O)N1CCN(c2oc(-c3ccco3)nc2C#N)CC1 | inconclusive: 0.501 µM [inhibitor, full curve, poor fit] | 
3 | O=C(CCc1nc2ccccc2n1-c1ccccc1)NCc1ccccc1F |  | inactive: 5.63%
4 | CCC(C)(C)C1CCc2c(sc(N)c2C(N)=O)C1 (stereo not drawn) | inconclusive: 44.7 µM [inhibitor, partial curve, poor fit] | 
5 | CCN(CC)CCNc1ncnc2c1sc1nc(N3CCCC3)c3c(c12)CC(C)(C)OC3 |  | inactive: -16.5%
6 | CC(C)OCC(O)CN1CCNCC1 (stereo not drawn) | inconclusive: 44.7 µM [inhibitor, single point] | 
7 | C[C@@H](NC(=O)c1ccc(F)cc1)c1onc(-c2ccccc2)c1C(=O)O |  | inactive: 19.8% [at 176 µM]
8 | CC([NH2+][O-])C(C)(C)NO (stereo not drawn) | inconclusive: 28.2 µM [inhibitor, partial curve, poor fit] | 
9 | COc1cc2ccccc2cc1C(=O)N(CCN(C)C)c1nc2c(C)cccc2s1 | inconclusive: 44.7 µM [inhibitor, partial curve, poor fit] | 
10 | CCN(CC)S(=O)(=O)c1ccc(C)c(NC(=S)Nc2cc(S(=O)(=O)N(CC)CC)ccc2C)c1 | inconclusive: 8.91 µM [inhibitor, partial curve, poor fit] | 
11 | CCc1ccc(OC(C)C(=O)Nc2ccccc2C(=O)N2CCOCC2)cc1 (stereo not drawn) |  | inactive: -13.9%
12 | CCn1nnc2cc(C(=O)Nc3cc(C)ccc3C)ccc21 |  | inactive: -0.537%
13 | O=C(NC(=S)NNC(=O)c1ccco1)c1ccc(Br)cc1 | active: 28.2 µM | 
14 | C=C(C)C1Cc2c(C)nn(-c3cccc4ccccc34)c2C1 (stereo not drawn) | inconclusive: 112 µM [inhibitor, single point] | 
15 | CN(C)[C@@H]1[C@@H](NC(=O)c2ccc(N3CC(=O)NC3=O)cc2)[C@H]2CCO[C@H]21 |  | inactive: 23.3%
16 | CCOc1ccc(C(=O)NCc2ccco2)cc1 |  | inactive: -8.98%
17 | COc1ccc(CN(C)C(=O)c2cc(-c3ccccc3)nc3ccc(C)cc23)c(OC)c1 |  | inactive: 10.9%
18 | CN(C)c1ccc(SC#N)cc1 |  | inactive: 0%
19 | Cc1sc2ncn(CC(=O)N(C)c3ccc(C(C)C)cc3)c(=O)c2c1S(=O)(=O)N1CCC(C)CC1 | inconclusive: 56.2 µM [inhibitor, partial curve, poor fit] | 
20 | Cc1cc(C(=S)N2CCOCC2)c(C)n1-c1ccc(F)cc1 | inconclusive: 50.1 µM [inhibitor, partial curve, poor fit] | 
21 | COc1cc(C2(c3ccc(O)c(OC)c3)C(=O)Nc3c(C)cc(Br)cc32)ccc1O | active: 25.1 µM | 
22 | Cc1cc(C)cc(NC(=O)CSc2ccc(S(=O)(=O)N3CCOCC3)cn2)c1 | inconclusive: 141 µM [inhibitor, single point] | 

Shown comma-delimited: nine of the compounds above.
Row,Compound,Potency,"activity change, negative = inhibition"
8,CC([NH2+][O-])C(C)(C)NO (stereo not drawn),"inconclusive: 28.2 µM [inhibitor, partial curve, poor fit]",
9,COc1cc2ccccc2cc1C(=O)N(CCN(C)C)c1nc2c(C)cccc2s1,"inconclusive: 44.7 µM [inhibitor, partial curve, poor fit]",
10,CCN(CC)S(=O)(=O)c1ccc(C)c(NC(=S)Nc2cc(S(=O)(=O)N(CC)CC)ccc2C)c1,"inconclusive: 8.91 µM [inhibitor, partial curve, poor fit]",
11,CCc1ccc(OC(C)C(=O)Nc2ccccc2C(=O)N2CCOCC2)cc1 (stereo not drawn),,inactive: -13.9%
12,CCn1nnc2cc(C(=O)Nc3cc(C)ccc3C)ccc21,,inactive: -0.537%
13,O=C(NC(=S)NNC(=O)c1ccco1)c1ccc(Br)cc1,active: 28.2 µM,
14,C=C(C)C1Cc2c(C)nn(-c3cccc4ccccc34)c2C1 (stereo not drawn),"inconclusive: 112 µM [inhibitor, single point]",
15,CN(C)[C@@H]1[C@@H](NC(=O)c2ccc(N3CC(=O)NC3=O)cc2)[C@H]2CCO[C@H]21,,inactive: 23.3%
16,CCOc1ccc(C(=O)NCc2ccco2)cc1,,inactive: -8.98%

Additional results.

Row | Compound | Potency | activity change, negative = inhibition
23 | COCc1noc([C@@H]2CC(F)(F)CN2)n1 | inconclusive: 2.82 µM [inhibitor, partial curve, poor fit] | 
24 | CCOC(=O)c1c(C)oc2c1c1c(c3ccccc32)OCN(Cc2ccccn2)C1 | inconclusive: 44.7 µM [inhibitor, partial curve, poor fit] | 
25 | C[C@@H]1O[C@@H](O[C@H]2[C@H](O[C@H]3C[C@]4(C)C(C[C@@H](O)C5C([C@]6(C)CC[C@@H](C(C)(C)O)O6)CC[C@]54C)[C@@]4(C)CC[C@H](O)C(C)(C)C34)O[C@H](CO)[C@@H](O)[C@@H]2O)[C@H](O)[C@H](O)[C@H]1O (stereo partly drawn) | inconclusive: 89.1 µM [inhibitor, single point] | 
26 | CC1CCC(NC(=O)C2(C)Cc3ccccc3C(=O)N2Cc2ccc(Cl)cc2)CC1 (stereo not drawn) |  | inactive: -23.1%
27 | CCCOc1ccc(CC(=O)NNC(=S)Nc2ccccc2)cc1Br | inconclusive: 3.16 µM [inhibitor, full curve, poor fit] | 
28 | COc1ncccc1-c1cccc(CCOc2cnc3c(ccn3CC(=O)O)c2)c1 | inconclusive: 44.7 µM [inhibitor, full curve] | 
29 | O=c1c2sc3nc(N4CCOCC4)c4c(c3c2ncn1-c1ccccc1)CCCC4 |  | inactive: -9.95%
30 | Nc1nc(NCc2ccccc2)sc1C(=O)c1ccc(Cl)cc1 | inconclusive: 20 µM [inhibitor, full curve] | 
31 | Cc1cccc(CN2CCNc3cc(-c4ccnc(C)c4)ncc3C2)c1 |  | inactive: -8.85% [at 176 µM]
32 | O=C(C1COc2ccccc2O1)N1CCN(Cc2ccc(Br)cc2F)CC1 (stereo not drawn) | inconclusive: 70.8 µM [inhibitor, partial curve, poor fit] | 
33 | Cc1cc2c3cccn3ccn2c1 | inconclusive: 50.1 µM [inhibitor, partial curve, poor fit] | 
34 | CC1(C(=O)Nc2ccc(F)c(Cl)c2)Cc2c(-c3ccccc3)ccnc2O1 (stereo not drawn) | inconclusive: 112 µM [inhibitor, single point] | 
35 | COc1cc(Cl)ccc1C(=O)N1CCC2(CC1)NC(=O)N(c1ccc(F)cc1)N2 | inconclusive: 10 µM [inhibitor, partial curve, poor fit] | 
36 | CCCCN(CC)CCCNC(=O)c1cn(CC)c2ccc(S(=O)(=O)N3CCc4ccccc4C3)cc2c1=O | inactive | 
37 | Cc1cc(N/N=C2\CC(C)CC(C)(C)C2)nc2ccccc12 (stereo not drawn) | inconclusive: 44.7 µM [inhibitor, partial curve, poor fit] | 
38 | COc1cc(C2C(C#N)=C(SCc3ccccc3)NC3=C2C(=O)CCC3)cc(OC)c1OC (stereo not drawn) | inconclusive: 0.562 µM [inhibitor, partial curve, poor fit] | 
39 | CC(C)(CO)N=C1NS(=O)(=O)c2cc([N+](=O)[O-])ccc21 |  | inactive: -9.98%
40 | COc1ccccc1-c1nnc(SCc2ccccn2)n1C |  | inactive: -26.9%
41 | CN1CN=C(NS(=O)(=O)c2ccc([N+](=O)[O-])cc2)NC1 | inconclusive: 44.7 µM [inhibitor, partial curve, poor fit] | 
42 | Cn1cc(S(=O)(=O)c2cccc(Cl)c2)c(=O)c2cc(F)c(N3CCCCC3)cc21 | inconclusive: 22.4 µM [inhibitor, partial curve, poor fit] | 
43 | Cc1ccc(OCCCCNC2CCCCC2)c(C)c1 | inconclusive: 7.08 µM [inhibitor, partial curve, poor fit] | 
